# According to PubChem BioAssay AID2685 (National Center for Advancing Translational Sciences (NCATS), 2010):
# The other results are listed elsewhere or left out. The main result of the screen is listed elsewhere. These columns were measured beside it and carry no call. The list favours compounds with an active or inconclusive main result. Potencies come from curve fits of mixed quality, noted in brackets.
# Assay: qHTS Assay for Lipid Storage Modulators in Drosophila S3 Cells;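 as to cell number change: cells counted by Cell Tracker Red CMTPX staining in the red channel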
# Conditions: BODIPY lipid droplet fluorescence, 18-24 h; for cell number change: measured here: cell count max response, cells fed with added oleic acid
# In short: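 Laser-scanning cytometry quantifies lipid droplet accumulation (500–530 nm total intensity; droplet/cell object ratio) in oleic acid-fed (400 uM added) Drosophila S3 cells treated with a concentration series. 20 uM Triacsin C defined 100% inhibition.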
# [1] = measured here: cell number channel AC50, cells fed with added oleic acid
# [2] = measured here: lipid fluorescence (Fed channel) AC50, cells fed with added oleic acid
compound,measurement,setting,value
COc1ccc(-c2cc3nc(-c4ccccc4)cc(N4CCC5(CC4)OCCO5)n3n2)cc1,cell number change,,-16.4%
COc1ccc(-n2c(C)nnc2SCC(=O)N2CCOCC2)cc1,cell number change,,-15%
CC(OC(=O)C1CCN(c2ccc(C(F)(F)F)cn2)CC1)C(=O)c1ccccc1 (configuration not stated),AC50,[1],"0.0291 µM [falling, full curve, poor fit]"
Cc1ccc2c(c1C)OC(=O)CC2c1ccccc1 (configuration not stated),cell number change,,-1.92%
same,AC50,[2],"6.51 µM [rising, single point]"
Cc1[nH]c2ccccc2c1/C=N\NC(=O)Cn1nnc(-c2ccccc2)n1,cell number change,,-10.5%
same,AC50,[2],"0.517 µM [rising, full curve]"
Cc1cc(C)cc(NC(=O)C2CCC(CNC(=O)[C@@H]3Cc4ccccc4CN3)CC2)c1 (some centres not stated),cell number change,,4.89%
same,AC50,[1],"0.0651 µM [rising, full curve, poor fit]"
CCn1ccnc1CNCc1cn(-c2cc(C)ccc2C)nc1-c1ccccc1,cell number change,,1.4%
same,AC50,[2],"0.411 µM [falling, single point]"
Cc1ccc(C(=O)OCC(=O)NCC2CCCO2)c(C)c1 (configuration not stated),cell number change,,-5.73%
same,AC50,[1],"6.51 µM [falling, single point]"
CCOc1ccc(C2CC(c3cccc(C)c3)n3ncnc3N2)cc1 (configuration not stated),cell number change,,-11.4%
same,AC50,[2],"2.06 µM [rising, partial curve, poor fit]"
COc1ccc(-c2nc(CS(=O)CC(=O)NC3CCCCC3)c(C)o2)cc1OC (configuration not stated),cell number change,,1.18%
COc1ccc(S(=O)(=O)N2CCN(C(=O)c3cccs3)CC2)cc1OC,cell number change,,-9.23%
O=C1CCC/C(=N/NC(=O)C2CCN(S(=O)(=O)c3cccs3)CC2)C1,cell number change,,-8.38%
same,AC50,[2],"0.92 µM [falling, full curve]"
CCCNC(=O)Nc1ccccc1C(=O)Nc1ccc(OC)cc1,AC50,[1],"6.51 µM [rising, single point]"
same,AC50,[2],"3.66 µM [rising, partial curve]"
CN(C(=O)COC(=O)c1cc(S(=O)(=O)N2CCOCC2)ccc1F)C1CCS(=O)(=O)C1 (configuration not stated),cell number change,,-19.7%
same,AC50,[2],"0.651 µM [falling, full curve]"
COC(=O)CNC(c1ccccc1)c1cc(Br)ccc1NC(=O)OCc1ccccc1 (configuration not stated),cell number change,,37.1%
same,AC50,[1],"29.1 µM [rising, single point]"
O=S(=O)(c1ccccc1)N1CCN(C(=S)NCCCN2CCOCC2)CC1,cell number change,,-19.5%
CNC(=O)c1ccsc1NC(=O)c1coc2ccccc2c1=O,cell number change,,-9.53%
same,AC50,[2],"1.64 µM [falling, partial curve]"
Cc1noc(C)c1C(=O)N1CCCC1,cell number change,,-125%
same,AC50,[1],"14.6 µM [falling, partial curve]"
COc1cc(C(C)=O)ccc1OCC(=O)Nc1cc(Cl)ccc1-n1cncn1,cell number change,,-0.213%
same,AC50,[2],"4.11 µM [falling, partial curve]"
COc1ccc2oc(C)c(C(=O)c3ccc([N+](=O)[O-])cc3)c2c1,cell number change,,2.35%
COc1ccc(CC(=O)Oc2ccc(Cl)cc2Br)cc1S(=O)(=O)N1CCOCC1,cell number change,,1%
O=c1[nH]c2ccc(S(=O)(=O)N3CCCCC3)cc2[nH]1,cell number change,,-34.3%
same,AC50,[1],"29.1 µM [falling, single point]"
same,AC50,[2],"0.0231 µM [rising, full curve, poor fit]"
CSCCC(NC(=O)c1ccco1)C(=O)NCc1ccc2c(c1)OCO2 (configuration not stated),cell number change,,55.5%
same,AC50,[1],"8.2 µM [rising, partial curve]"
CCN1C(=O)C(=O)N(CC(=O)NC(C)CCc2ccccc2)C1=O (configuration not stated),cell number change,,-23.5%
NS(=O)(=O)c1cccc(NC(=O)CSc2nc3ccccc3c(=O)n2CC2CCCO2)c1 (configuration not stated),cell number change,,-24%
O=C(c1ccc(Cl)c(Cl)c1)N1CCC(=O)N(C(COCc2ccccc2)Cc2ccccc2)CC1 (configuration not stated),cell number change,,12%
same,AC50,[2],"10.3 µM [rising, single point]"
Cc1ccc(SCc2ccc(C(=O)Nc3nccs3)o2)cc1,cell number change,,25.5%
same,AC50,[2],"1.58 µM [rising, partial curve, poor fit]"
O=C(CSc1nnc(-c2cccnc2)n1C1CCCCC1)NC1CCCCC1,cell number change,,-3.85%
same,AC50,[1],"0.13 µM [falling, full curve, poor fit]"
same,AC50,[2],"0.231 µM [rising, full curve, poor fit]"
COCCCNC(=S)N1CCC(NC(=O)c2ccco2)CC1,cell number change,,-14.2%
same,AC50,[2],"8.2 µM [falling, partial curve]"
CC1CCCCN1C(=O)CCS(=O)(=O)c1cccc2nonc12 (configuration not stated),cell number change,,-37.2%
same,AC50,[1],"29.1 µM [falling, single point]"
O=C(COC(=O)COc1ccc2ccccc2c1)Nc1cc(C(F)(F)F)ccc1N1CCOCC1,cell number change,,-43.3%
same,AC50,[1],"0.517 µM [falling, partial curve, poor fit]"
same,AC50,[2],"0.517 µM [falling, full curve, poor fit]"
CCOC(=O)C1(Cc2ccc(Cl)cc2)CCN(C(C)Cc2ccc(O)c(OC)c2)CC1 (configuration not stated),cell number change,,-33.1%
same,AC50,[1],"23.1 µM [falling, single point]"
same,AC50,[2],"4.61 µM [falling, partial curve]"
CC(=O)c1cccc(Nc2cc(C)nc3ccccc23)c1,AC50,[2],"1.84 µM [rising, partial curve, poor fit]"
Cc1n[nH]c(C)c1Sc1ccccc1N=Cc1cc(Cl)cc([N+](=O)[O-])c1O,cell number change,,51%
same,AC50,[1],"20.6 µM [rising, single point]"
COc1ccc(NC(=O)CN(C)C(=O)/C=C/c2ccc(S(=O)(=O)N3CCCCCC3)cc2)cc1,AC50,[2],"23.1 µM [falling, single point]"
Cn1c(=O)oc2cc(S(=O)(=O)N3CCOCC3)ccc21,cell number change,,0.259%
same,AC50,[2],"0.116 µM [falling, full curve, poor fit]"
COc1cccc(C2=NOC(C(=O)Nc3cccc(C(C)=O)c3)C2)c1 (configuration not stated),cell number change,,-15.9%
Cc1ccc(Nc2nnc(SCC(=O)Nc3cccc(S(=O)(=O)NC4=NCCCCC4)c3)s2)cc1,cell number change,,20.9%
same,AC50,[2],"0.651 µM [rising, single point]"
Cc1cc(C)nc(-n2nc(C)c3c(C(F)(F)F)cc(=O)[nH]c32)n1,cell number change,,1.61%
C/C(=N\Nc1nccnc1Cl)c1ccc(Br)cc1,cell number change,,-0.265%
CCN(CC)S(=O)(=O)c1ccc(/C=C/C(=O)OCC(=O)NNC(=O)c2ccc(OC)cc2)cc1,cell number change,,6.45%
same,AC50,[1],"6.51 µM [falling, single point]"
same,AC50,[2],"6.51 µM [falling, partial curve, poor fit]"

# Pulled one by one from the entries so far:
compound,measurement,setting,value
CCOC(=O)C1(Cc2ccc(Cl)cc2)CCN(C(C)Cc2ccc(O)c(OC)c2)CC1 (configuration not stated),cell number change,,-33.1%
CC1CCCCN1C(=O)CCS(=O)(=O)c1cccc2nonc12 (configuration not stated),AC50,[1],"29.1 µM [falling, single point]"
O=C1CCC/C(=N/NC(=O)C2CCN(S(=O)(=O)c3cccs3)CC2)C1,AC50,[2],"0.92 µM [falling, full curve]"
CCOc1ccc(C2CC(c3cccc(C)c3)n3ncnc3N2)cc1 (configuration not stated),cell number change,,-11.4%
